Assay results published in publication doi:10.1101/364067.
No constants are given. Whether binding was seen depends on the method and setting. In cells and extracts the contact can be indirect. A yes stands for co-enrichment or nearness to the bait. Other partners may have been found.

By UniProt entry, the sequences of proteins in these tests, tags left out. Where a name states a change or a piece, a line headed by the entry shows the natural chain unless it says otherwise.
UniProt P12520, whole entry: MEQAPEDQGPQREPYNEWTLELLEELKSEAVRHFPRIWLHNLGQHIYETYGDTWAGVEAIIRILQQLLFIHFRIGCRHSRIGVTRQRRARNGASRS

Target: 3xHA tagged Vpr (HIV-1 NL4-3 Vpr) (HIV-1 (NL4-3)) (UniProt P12520)
Experiment: affinity purification with mass spectrometry

**Q.** Which binding does the source give for SMN1 (from UniProt Q16637 1-294) here?
**A.** binds

**Q.** For KIF18A (from UniProt Q8NI77 1-898), which binding is on record?
**A.** binds

B1: BBX (protein, UniProt Q8WY36 1-941)
chain: MKGSNRNKDHSAEGEGVGKRPKRKCLQWHPLLAKKLLDFSEEEEEEDEEEDIDKVQLLGADGLEQDVGETEDDESPEQRARRPMNAFLLFCKRHRSLVRQEHPRLDNRGATKILADWWAVLDPKEKQKYTDMAKEYKDAFMKANPGYKWCPTTNKPVKSPTPTVNPRKKLWAFPSDSSRDLPSPKKAKTEEMPQLNFGMADPTQMGGLSMLLLAGEHALGTPEVSSGTCRPDVSESPELRQKSPLFQFAEISSSTSHSDASTKQCQTSALFQFAEISSNTSQLGGAEPVKRCGKSALFQLAEMCLASEGMKMEESKLIKAKESDGGRIKELEKGKEEKEIKMEKTDETRLQKEAEFEKSAKENLRDSKELRNFEALQIDDIMAIKMEDPKEIRKEELEEDHKCSHFPDFSYSASSKIIISDVPSRKDHMCHPHGIMIIEDPAALNKPEKLKKKKKKSKMDRHGNDKSTPKKTCKKRQSSESDIESVIYTIEAVAKGDWGIEKLGDTPRKKVRTSSSGKGSILDAKPPKKKVKSREKKMSKEKSSDTTKESRPPDFISISASKNISGETPEGIKAEPLTPMEDALPPSLSGQAKPEDSDCHRKIETCGSRKSERSCKGALYKTLVSEGMLTSLRANVDRGKRSSGKGNSSDHEGCWNEESWTFSQSGTSGSKKFKKTKPKEDCLLGSAKLDEEFEKKFNSLPQYSPVTFDRKCVPVPRKKKKTGNVSSEPTKTSKGPFQSQKKNLFHKIVSKYKHKKEKPNVPEKGSGDKWSNKQLFLDAIHPTEAIFSEDRNTMEPVHKVKNIPSIFNTPEPTTTQEPLVGSQKRKARKTKITHLVRTADGRVSPAGGTLDDKPKEQLQRSLPKATETDCNDKCSHNTEVGETRSSTPEMPAVSAFFSLAALAEVAAMENVHRGQRSTPLTHDGQPKEMPQAPVLISCADQ
**Q.** B1 was tested. Which binding did it give?
**A.** binds
